Measured values from paper doi:10.1101/2024.01.29.577409.
Results are given in words; binding and its absence hold for the method and conditions named. For some of these results: Binding seen in cells or lysates may run through a third protein. Some binding calls cover weakened binding; strength is not graded here.

Sequences of proteins named here, by UniProt entry; tags and fusion partners are left off. Residues count along the entry.
UniProt Q9D7S9: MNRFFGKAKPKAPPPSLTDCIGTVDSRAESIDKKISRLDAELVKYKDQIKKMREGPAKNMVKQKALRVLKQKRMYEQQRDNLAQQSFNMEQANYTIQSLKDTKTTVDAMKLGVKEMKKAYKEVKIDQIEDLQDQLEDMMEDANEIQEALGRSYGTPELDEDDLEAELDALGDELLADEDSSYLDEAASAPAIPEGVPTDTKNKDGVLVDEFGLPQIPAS
UniProt Q09472: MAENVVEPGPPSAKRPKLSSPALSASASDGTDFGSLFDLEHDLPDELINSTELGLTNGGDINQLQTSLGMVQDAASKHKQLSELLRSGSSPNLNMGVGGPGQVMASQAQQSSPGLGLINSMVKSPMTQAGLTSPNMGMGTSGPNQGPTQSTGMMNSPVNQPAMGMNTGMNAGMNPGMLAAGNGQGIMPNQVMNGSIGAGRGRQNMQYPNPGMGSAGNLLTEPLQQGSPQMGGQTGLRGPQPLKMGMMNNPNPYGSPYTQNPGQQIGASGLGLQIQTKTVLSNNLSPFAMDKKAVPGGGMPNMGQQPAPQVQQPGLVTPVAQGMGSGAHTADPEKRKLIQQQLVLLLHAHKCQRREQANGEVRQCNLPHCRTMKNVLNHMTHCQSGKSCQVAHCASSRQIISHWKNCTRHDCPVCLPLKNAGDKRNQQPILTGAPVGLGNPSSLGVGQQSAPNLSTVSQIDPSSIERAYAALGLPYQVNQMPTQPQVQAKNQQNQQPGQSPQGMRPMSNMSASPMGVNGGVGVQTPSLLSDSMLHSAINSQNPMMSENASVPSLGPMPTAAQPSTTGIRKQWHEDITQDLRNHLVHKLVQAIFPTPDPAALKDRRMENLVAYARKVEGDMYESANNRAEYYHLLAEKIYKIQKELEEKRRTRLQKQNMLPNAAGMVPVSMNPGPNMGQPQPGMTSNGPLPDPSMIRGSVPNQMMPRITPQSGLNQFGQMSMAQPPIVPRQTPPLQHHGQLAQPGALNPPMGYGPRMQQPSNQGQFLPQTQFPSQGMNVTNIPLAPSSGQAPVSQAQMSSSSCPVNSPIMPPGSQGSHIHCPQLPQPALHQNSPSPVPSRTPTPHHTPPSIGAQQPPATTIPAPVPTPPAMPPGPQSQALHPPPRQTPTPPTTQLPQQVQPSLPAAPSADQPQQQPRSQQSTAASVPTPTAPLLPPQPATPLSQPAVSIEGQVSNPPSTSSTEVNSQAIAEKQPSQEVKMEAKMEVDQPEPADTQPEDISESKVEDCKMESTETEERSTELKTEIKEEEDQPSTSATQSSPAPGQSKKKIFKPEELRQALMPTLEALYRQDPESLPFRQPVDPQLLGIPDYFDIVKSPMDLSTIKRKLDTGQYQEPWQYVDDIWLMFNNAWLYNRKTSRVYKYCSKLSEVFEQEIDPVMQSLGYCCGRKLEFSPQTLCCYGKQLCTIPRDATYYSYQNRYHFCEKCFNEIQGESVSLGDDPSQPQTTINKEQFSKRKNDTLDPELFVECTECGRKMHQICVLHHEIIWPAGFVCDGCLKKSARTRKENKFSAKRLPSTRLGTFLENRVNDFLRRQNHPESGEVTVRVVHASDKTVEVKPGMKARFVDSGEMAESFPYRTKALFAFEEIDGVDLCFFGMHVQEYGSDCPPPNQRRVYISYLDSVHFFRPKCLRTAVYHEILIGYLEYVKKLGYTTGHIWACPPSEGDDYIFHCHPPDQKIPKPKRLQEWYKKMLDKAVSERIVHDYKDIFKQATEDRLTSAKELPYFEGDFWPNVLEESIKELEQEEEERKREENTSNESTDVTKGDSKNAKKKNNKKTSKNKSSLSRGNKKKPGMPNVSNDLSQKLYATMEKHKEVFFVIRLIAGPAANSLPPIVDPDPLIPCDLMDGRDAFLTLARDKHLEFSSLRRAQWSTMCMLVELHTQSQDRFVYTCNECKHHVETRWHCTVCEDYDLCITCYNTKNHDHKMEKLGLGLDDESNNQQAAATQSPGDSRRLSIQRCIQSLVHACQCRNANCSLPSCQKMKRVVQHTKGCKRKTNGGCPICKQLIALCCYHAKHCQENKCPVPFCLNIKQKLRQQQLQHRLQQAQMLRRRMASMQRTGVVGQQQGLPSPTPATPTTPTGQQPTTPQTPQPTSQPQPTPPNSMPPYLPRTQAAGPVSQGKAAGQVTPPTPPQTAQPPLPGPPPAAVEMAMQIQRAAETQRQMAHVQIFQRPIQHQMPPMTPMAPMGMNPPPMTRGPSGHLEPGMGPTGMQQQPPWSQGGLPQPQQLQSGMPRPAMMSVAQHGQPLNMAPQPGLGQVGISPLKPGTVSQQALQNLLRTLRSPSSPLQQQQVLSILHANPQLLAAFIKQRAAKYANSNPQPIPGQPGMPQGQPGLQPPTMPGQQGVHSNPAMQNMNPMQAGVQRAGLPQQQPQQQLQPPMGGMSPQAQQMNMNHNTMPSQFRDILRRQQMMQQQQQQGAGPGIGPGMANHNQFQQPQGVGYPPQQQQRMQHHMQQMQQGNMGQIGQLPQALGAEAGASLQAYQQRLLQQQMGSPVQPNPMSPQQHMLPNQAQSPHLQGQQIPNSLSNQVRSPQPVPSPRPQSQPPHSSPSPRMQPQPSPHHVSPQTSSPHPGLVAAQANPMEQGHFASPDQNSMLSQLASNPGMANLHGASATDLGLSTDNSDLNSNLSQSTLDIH
UniProt P01106: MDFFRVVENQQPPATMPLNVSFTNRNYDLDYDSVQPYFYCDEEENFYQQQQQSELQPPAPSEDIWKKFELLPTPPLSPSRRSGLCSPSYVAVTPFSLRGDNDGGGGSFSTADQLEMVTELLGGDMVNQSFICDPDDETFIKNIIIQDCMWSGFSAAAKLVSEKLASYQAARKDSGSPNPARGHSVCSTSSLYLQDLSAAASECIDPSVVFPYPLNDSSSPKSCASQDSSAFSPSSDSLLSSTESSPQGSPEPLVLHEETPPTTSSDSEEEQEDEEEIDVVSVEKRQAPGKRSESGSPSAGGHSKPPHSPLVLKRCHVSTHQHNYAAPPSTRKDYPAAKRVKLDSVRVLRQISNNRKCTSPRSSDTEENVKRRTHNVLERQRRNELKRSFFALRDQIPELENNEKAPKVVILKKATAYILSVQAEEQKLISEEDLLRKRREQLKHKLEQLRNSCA
UniProt P46531, residues 1754-2555: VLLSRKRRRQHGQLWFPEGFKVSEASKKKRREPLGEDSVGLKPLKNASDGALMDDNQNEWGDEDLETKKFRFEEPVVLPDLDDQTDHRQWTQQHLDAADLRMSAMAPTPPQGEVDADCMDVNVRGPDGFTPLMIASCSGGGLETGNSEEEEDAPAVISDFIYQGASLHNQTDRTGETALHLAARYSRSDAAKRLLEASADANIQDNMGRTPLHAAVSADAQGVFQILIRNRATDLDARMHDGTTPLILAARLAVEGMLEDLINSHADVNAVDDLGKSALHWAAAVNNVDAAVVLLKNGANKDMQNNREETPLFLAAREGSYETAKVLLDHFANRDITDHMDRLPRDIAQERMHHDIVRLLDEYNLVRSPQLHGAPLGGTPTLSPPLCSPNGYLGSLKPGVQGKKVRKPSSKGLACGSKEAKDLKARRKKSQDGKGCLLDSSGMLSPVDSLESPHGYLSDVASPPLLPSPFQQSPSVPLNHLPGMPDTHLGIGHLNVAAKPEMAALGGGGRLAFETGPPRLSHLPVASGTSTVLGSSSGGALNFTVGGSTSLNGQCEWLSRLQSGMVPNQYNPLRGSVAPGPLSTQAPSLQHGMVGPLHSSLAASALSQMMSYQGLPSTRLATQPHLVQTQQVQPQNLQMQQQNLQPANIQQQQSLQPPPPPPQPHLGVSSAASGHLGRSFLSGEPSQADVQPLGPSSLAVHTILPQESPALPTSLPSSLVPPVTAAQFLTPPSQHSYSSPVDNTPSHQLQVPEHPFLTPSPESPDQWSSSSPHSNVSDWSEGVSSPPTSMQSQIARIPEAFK
UniProt Q9NZZ3: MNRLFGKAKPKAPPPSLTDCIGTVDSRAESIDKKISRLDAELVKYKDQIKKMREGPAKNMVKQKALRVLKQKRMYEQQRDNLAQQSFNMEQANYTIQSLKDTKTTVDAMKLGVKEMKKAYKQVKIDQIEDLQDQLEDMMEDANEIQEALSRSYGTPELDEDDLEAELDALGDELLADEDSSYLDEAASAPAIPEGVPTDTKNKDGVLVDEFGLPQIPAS

What was measured:
[1] = target: hemagglutinin (HA)-tagged CHMP5 (UniProt Q9D7S9); assay: co-IP; anti-HA immunoprecipitation (isotype IgG as control) from fractionated CUTLL1 cells transduced with HA-tagged CHMP5, nuclear lysates; Protein G Dynabeads, antibody overnight at 4°C; Western blot
[2] = target: recombinant p300 (UniProt Q09472); assay: co-IP; cell-free: recombinant p300-FLAG and CHMP5-His mixed 1:1 in TBS overnight at 4°C, anti-FLAG antibody and Protein G Dynabeads, washed with TBS + 0.2% NP-40; both purified

binding [2]	Substance	binding [1]
–	MYC (from UniProt P01106 1-454)	no binding
–	intracellular NOTCH1 domain (ICN1) (from UniProt P46531 1754-2555) (domain or fragment)	no binding
–	endogenous p300 (from UniProt Q09472 1-2414) (enzyme)	binds
binds	recombinant CHMP5 (from UniProt Q9NZZ3 1-219)	–
